About 6,000 (1.7%) of roughly 350,000 compounds were called active. The inconclusive results got no clear call from the source; some entries with a clear call stand among them for comparison. No stated cut-off is given here; in the data, active means CPE inhibition above about 20% (passing the limit was not always enough); inconclusive means no clear call, values can overlap the other calls; tested in BHK-21 cells.
assay: protection of cells from dengue 2 killing – plate reader, single concentration, primary screen (AID 651640); conditions: DENV2-infected cells, cytopathic effect rescue, at 9.99 µM, stronger effect = higher value;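 further: 0% = median of neutral control wells and 100% = median of positive control wells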

SMILES	CPE inhibition
CCOC(=O)c1[nH]c2ccc(OC)cc2c1C(SCC(=O)O)c1ccc(C(F)(F)F)cc1 (configuration not stated)	inconclusive: 35.4%
CC(=O)O[C@@]12CO[C@@H]1C[C@@H](O)[C@@]1(C)C(=O)[C@H](O)C3=C(C)[C@@H](OC(=O)[C@H](O)[C@@H](NC(=O)c4ccccc4)c4ccccc4)C[C@@](O)([C@@H](OC(=O)c4ccccc4)C12)C3(C)C (some centres not stated)	inactive: 9.44%
CCC(=O)N1[C@@H]2Cn3c(ccc(-c4cccc(F)c4)c3=O)[C@H]1[C@@H](C(=O)OC)[C@@H]2CO	inconclusive: 21.8%
c1ccc(-n2ccnc2)cc1	inconclusive: 44.6%
COC(=O)C1C(OC(=O)c2ccccc2)CC2CCC1N2C (configuration not stated)	inconclusive: 24.2%
c1ccc2c(c1)[IH]c1ccccc1-2	inactive: -4.81%
O=c1[nH]c2ccccc2n1C1CCN(C(CCc2ccccc2)c2nnnn2-c2ccc3c(c2)OCCO3)CC1 (configuration not stated)	inconclusive: 40.2%
O=C(NCCN1CCC2(CC1)C(=O)NCN2c1ccccc1)c1ccccc1F	active: 30.8%
O=C(Cc1ccccn1)N1CCCCN2[C@H](C1)[C@@H](c1ccc(-c3ccccc3)cc1)[C@@H]2CO	active: 20.7%
C=CCN1CC[C@]23c4c5ccc(O)c4OC2C(O)C=CC3[C@H]1C5 (some centres not stated)	active: 131%
CN1CC[C@]23c4c5ccc(O)c4OC2[C@H](O)C=CC3[C@H]1C5 (some centres not stated)	inconclusive: 72.6%
Cc1cc(C(=O)OC(C)C(=O)Nc2ccccc2)c(C)n1C1CC1 (configuration not stated)	inconclusive: 53.9%
CN1CCN(Cc2ccc(N)cc2)CC1	inconclusive: 34.7%
C=C(Cl)CSC(=S)N(CC)CC	active: 32.3%
CN1C2CCC1CC(OC(c1ccccc1)c1ccc(Cl)cc1)C2 (configuration not stated)	inconclusive: 59.5%
COC(=O)c1ccccc1NC(=O)N1C[C@@H]2C[C@@H](C1)c1cccc(=O)n1C2	inconclusive: 72.9%
O=P(Nc1cccnc1)(Oc1ccccc1Cl)Oc1ccccc1Cl	inactive: 6.5%
Cc1ccc(CN2CCSc3ccc(C(=O)N4CCC5(CC4)OCCO5)cc32)cc1	inconclusive: 43.4%
CCCC(=O)NC1=C(N2CC2)C(=O)C(NC(=O)CCC)=C(N2CC2)C1=O	inconclusive: 27.8%
Cc1ccc(S(=O)(=O)N2Cc3cc(-c4ccccc4)ccc3-n3nncc3C2)cc1	inconclusive: 30.6%
COC(=O)[C@@H]1[C@@H](CO)[C@@H]2Cn3c(ccc(C4=CCCCC4)c3=O)[C@H]1N2C(=O)NC(C)C	inactive: -10.3%
C/C=C/c1ccc([C@H]2[C@@H](CO)N3CCCCN(C(=O)Cc4ccncc4)C[C@@H]23)cc1	active: 140%
COc1ccc2c(c1)C(NC(C)=O)CCc1cc(OC)c(OC)c(OC)c1-2 (configuration not stated)	inactive: -3.35%
CCCCOC(=O)c1ccccc1C(=O)OCCCC	inconclusive: 38.6%
COC(=O)C1=C(c2ccc(F)cc2OCc2ccccc2)C[C@@H]2CC[C@H]1N2C(=O)NCCN1CCOCC1	inconclusive: 59.9%
COc1cccc(CN2CC=C(c3ccc(F)cc3)CC2)c1	inconclusive: 36.1%

SMILES	CPE inhibition
C[C@@H]1C(=O)O[C@H]2[C@H](O)[C@]34[C@@H]5OC(=O)[C@]3(OC3OC(=O)[C@H](O)C34[C@H](C(C)(C)C)[C@@H]5O)[C@@]12O (some centres not stated)	active: 41.7%
COc1ccc(C#Cc2ccc([C@@H]3[C@H](CO)N4CCCCN(C(=O)Cc5cccnc5)C[C@@H]34)cc2)cc1	active: 26.6%
CCCCN1C(=O)/C(=C/C=C/c2ccco2)C(=O)NC1=S	inactive: -1.21%
CCCCn1c(=O)c(C=Nc2cc([N+](=O)[O-])ccc2OC)c(O)n(CCCCl)c1=O	inactive: 2.59%
Cc1sc2ncnc(N3CCC(C(=O)Nc4ccc(C#N)c(Cl)c4)CC3)c2c1C	inactive: -3.07%
O=c1[nH]c(=O)n(Cc2ccco2)c(O)c1C=NC1CCN(Cc2ccccc2)CC1	inconclusive: 27.8%
COc1ccc(NC(=S)N2Cc3ccccc3-n3nncc3C2)c(OC)c1	active: 25.2%
CCCCCCC(Cl)(Cn1ccnc1)c1ccccc1 (configuration not stated)	inconclusive: 50.2%
COC(=O)C1=C(c2ccccc2OCc2ccccc2)C[C@@H]2CC[C@H]1N2C(=O)NCc1ccc(Cl)cc1	active: 57.8%
C[C@]12CC[C@H](O)CC1=CCC1C2CC[C@]2(C)C(=O)[C@H](Br)CC12 (some centres not stated)	inconclusive: 27.7%
COC(=O)C1=C(c2cccc(OC)c2OC)C[C@@H]2CC[C@H]1N2C(=O)NCc1cccc2ccccc12	inconclusive: 26.8%
Cc1cc(C(=O)OCC(=O)Nc2ccc(F)cc2F)c(C)n1C1CC1	inconclusive: 20.7%
O=c1[nH]oc2c1CCNC2	inconclusive: 27.2%
CCCCn1nnnc1C(c1ccnc2ccccc12)N1CCC2(CC1)C(=O)NCN2c1ccccc1 (configuration not stated)	inconclusive: 47%
CNC(=O)OCCc1n(C)cc[n+]1C	inactive: -4.04%
Cc1ccc(OP(=O)(NC(C)c2ccccc2)Oc2ccc(C)cc2)cc1 (configuration not stated)	inactive: -4.13%
O=C(OCc1ccccc1)N1CCC2CC1c1cc(N3Cc4ccccc4-n4nncc4C3)ccc12 (configuration not stated)	inconclusive: 66.6%
O=C(Cc1ccccn1)N1CCCCN2[C@@H](CO)[C@@H](c3ccc(Br)cc3)[C@@H]2C1	active: 32.9%
O=C1NCN(c2ccccc2)C12CCN(C(c1ccccc1)c1nnnn1-c1ccc3c(c1)OCCO3)CC2 (configuration not stated)	inconclusive: 20.6%
O=C(CN1CC(c2ccccc2)CC1=O)Nc1cccc(F)c1 (configuration not stated)	inconclusive: 26.6%
CCN(CC)c1ccccc1	active: 129%
O=C(O)[C@H]1[C@H](CO)[C@H]2Cn3c(ccc(-c4ccccc4)c3=O)[C@@H]1N2C(=O)C1CCCCC1	inactive: 11.7%
Cc1nc2ccccc2c(=O)n1-c1ccc(Cl)c(Cl)c1	inactive: -6.64%
O=C(Nc1ccccc1)N1CCC2(CC1)OCCO2	inconclusive: 21%
CC1=C(C)CC2(C(=O)NC(=S)NC2=O)C(C)C1 (configuration not stated)	inconclusive: 35.8%
CC=Cc1ccc2n(c1=O)C[C@@H]1[C@@H](CO)[C@H](C(=O)N(C)C)[C@H]2N1C (mixture of isomers)	inactive: 1.86%

Reference: PubChem BioAssay AID651640 (Broad Institute, 2012)
